From the supplement of paper PMC8728848
Some of the results follow.

Tests used:
Assay in all cases: glycan array binding signal (z-score within array); higher = stronger binding
Conditions in all cases: glycan notation: IUPAC condensed, linker removed
Fuc(a1-2)Gal = biological target: Fuc(a1-2)Gal
Outline: (§1)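 Columns mapping to the same glycan were averaged after glycan names were converted to IUPAC-condensed notation. The data come from 3228 arrays in the Consortium for Functional Glycomics database, limited to those with an available protein sequence. Binding is reported as a within-array Z-score averaged across arrays of one protein sequence and across linkers.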

Fuc(a1-2)Gal(b1-3)GalNAc = biological target: Fuc(a1-2)Gal(b1-3)GalNAc
Outline: as §1

[1] = biological target: Fuc(a1-2)Gal(b1-3)GalNAc(b1-3)Gal
Outline: as §1

[2] = biological target: Fuc(a1-2)Gal(b1-3)GalNAc(b1-3)Gal(a1-4)Gal(b1-4)Glc
Outline: as §1

[3] = biological target: Fuc(a1-2)Gal(b1-3)GalNAc(b1-4)[Neu5Ac(a2-3)]Gal(b1-4)Glc
Outline: as §1

Fuc(a1-2)Gal(b1-3)GlcNAc = biological target: Fuc(a1-2)Gal(b1-3)GlcNAc
Outline: as §1

[4] = biological target: Fuc(a1-2)Gal(b1-3)GlcNAc(b1-3)Gal(b1-4)Glc
Outline: as §1

[5] = biological target: Fuc(a1-2)Gal(b1-3)[Fuc(a1-4)]GlcNAc
Outline: as §1

Fuc(a1-2)Gal(b1-4)Glc = biological target: Fuc(a1-2)Gal(b1-4)Glc
Outline: as §1

Fuc(a1-2)Gal(b1-4)Glc6S = biological target: Fuc(a1-2)Gal(b1-4)Glc6S
Outline: as §1

Fuc(a1-2)Gal(b1-4)GlcNAc = biological target: Fuc(a1-2)Gal(b1-4)GlcNAc
Outline: as §1

[6] = biological target: Fuc(a1-2)Gal(b1-4)GlcNAc(b1-3)Gal(b1-4)GlcNAc
Outline: as §1

[7] = biological target: Fuc(a1-2)Gal(b1-4)GlcNAc(b1-3)Gal(b1-4)GlcNAc(b1-3)Gal(b1-4)GlcNAc
Outline: as §1

[8] = biological target: Fuc(a1-2)Gal(b1-4)GlcNAc6S
Outline: as §1

[9] = biological target: Fuc(a1-2)Gal(b1-4)[Fuc(a1-3)]GlcNAc
Outline: as §1

[10] = biological target: Fuc(a1-2)Gal(b1-4)[Fuc(a1-3)]GlcNAc(b1-3)Gal(b1-4)[Fuc(a1-3)]GlcNAc
Outline: as §1

[11] = biological target: Fuc(a1-2)Gal(b1-4)[Fuc(a1-3)]GlcNAc(b1-3)Gal(b1-4)[Fuc(a1-3)]GlcNAc(b1-3)Gal(b1-4)[Fuc(a1-3)]GlcNAc
Outline: as §1

Fuc(a1-2)Gal6S(b1-4)Glc = biological target: Fuc(a1-2)Gal6S(b1-4)Glc
Outline: as §1

[12] = biological target: Fuc(a1-2)Gal6S(b1-4)Glc6S
Outline: as §1

[13] = biological target: Fuc(a1-2)Gal6S(b1-4)GlcNAc
Outline: as §1

Fuc(a1-2)[Gal(a1-3)]Gal = biological target: Fuc(a1-2)[Gal(a1-3)]Gal
Outline: as §1

[14] = biological target: Fuc(a1-2)[Gal(a1-3)]Gal(b1-3)GlcNAc
Outline: as §1

[15] = biological target: Fuc(a1-2)[Gal(a1-3)]Gal(b1-4)Glc
Outline: as §1

[16] = biological target: Fuc(a1-2)[Gal(a1-3)]Gal(b1-4)GlcNAc
Outline: as §1

[17] = biological target: Fuc(a1-2)[Gal(a1-3)]Gal(b1-4)[Fuc(a1-3)]GlcNAc
Outline: as §1

[18] = biological target: Fuc(a1-2)[Gal(a1-4)]Gal(b1-4)GlcNAc
Outline: as §1

[19] = biological target: Fuc(a1-2)[GalNAc(a1-3)]Gal
Outline: as §1

[20] = biological target: Fuc(a1-2)[GalNAc(a1-3)]Gal(b1-3)GlcNAc
Outline: as §1

[21] = biological target: Fuc(a1-2)[GalNAc(a1-3)]Gal(b1-4)Glc
Outline: as §1

[22] = biological target: Fuc(a1-2)[GalNAc(a1-3)]Gal(b1-4)GlcNAc
Outline: as §1

B1: Mcg Light Chain Dimer (Homo sapiens), Q6PIK1 (protein)
chain: MAGFPLLLTLLTHCAGSWGQSLLTQPPSVSGTPGQRVTISCSGSSSNIGINYVYWYQQIPGTAPKLLISTNDQRPSGVPDRFSGSKSGTSASLAIGGLRSEDEAHYYCAAWDDSMSGPGYAFGTGTKVTVLRQPKANPTVTLFPPSSEELQANKATLVCLISDFYPGAVTVAWKADGSPVKAGVETTKPSKQSNNKYAASSYLSLTPEQWKSHRSYSCQVTHEGSTVEKTVAPTECS
glycan array binding signal (z-score) (Fuc(a1-2)Gal): 0.391
glycan array binding signal (z-score) (Fuc(a1-2)Gal(b1-3)GalNAc): 0.185
glycan array binding signal (z-score) [1]: -0.611
glycan array binding signal (z-score) [2]: 0.219
glycan array binding signal (z-score) [3]: 0.092
glycan array binding signal (z-score) (Fuc(a1-2)Gal(b1-3)GlcNAc): -0.346
glycan array binding signal (z-score) [4]: -0.386
glycan array binding signal (z-score) [5]: -0.879
glycan array binding signal (z-score) (Fuc(a1-2)Gal(b1-4)Glc): -0.76
glycan array binding signal (z-score) (Fuc(a1-2)Gal(b1-4)Glc6S): 0.735
glycan array binding signal (z-score) (Fuc(a1-2)Gal(b1-4)GlcNAc): -0.245
glycan array binding signal (z-score) [6]: -0.758
glycan array binding signal (z-score) [7]: 1.09
glycan array binding signal (z-score) [8]: 1.76
glycan array binding signal (z-score) [9]: -0.471
glycan array binding signal (z-score) [10]: -0.965
glycan array binding signal (z-score) [11]: 0.461
glycan array binding signal (z-score) (Fuc(a1-2)Gal6S(b1-4)Glc): -0.637
glycan array binding signal (z-score) [12]: 0.412
glycan array binding signal (z-score) [13]: -0.601
glycan array binding signal (z-score) (Fuc(a1-2)[Gal(a1-3)]Gal): -0.347
glycan array binding signal (z-score) [14]: -0.231
glycan array binding signal (z-score) [15]: -1.02
glycan array binding signal (z-score) [16]: 0.23
glycan array binding signal (z-score) [17]: -0.709
glycan array binding signal (z-score) [18]: -0.754
glycan array binding signal (z-score) [19]: -0.361
glycan array binding signal (z-score) [20]: -0.917
glycan array binding signal (z-score) [21]: 0.238
glycan array binding signal (z-score) [22]: -0.401
